These results are taken from PMC9570040.

The chains behind the UniProt entries cited, without tags or fusion partners.
UniProt Q9UPY5: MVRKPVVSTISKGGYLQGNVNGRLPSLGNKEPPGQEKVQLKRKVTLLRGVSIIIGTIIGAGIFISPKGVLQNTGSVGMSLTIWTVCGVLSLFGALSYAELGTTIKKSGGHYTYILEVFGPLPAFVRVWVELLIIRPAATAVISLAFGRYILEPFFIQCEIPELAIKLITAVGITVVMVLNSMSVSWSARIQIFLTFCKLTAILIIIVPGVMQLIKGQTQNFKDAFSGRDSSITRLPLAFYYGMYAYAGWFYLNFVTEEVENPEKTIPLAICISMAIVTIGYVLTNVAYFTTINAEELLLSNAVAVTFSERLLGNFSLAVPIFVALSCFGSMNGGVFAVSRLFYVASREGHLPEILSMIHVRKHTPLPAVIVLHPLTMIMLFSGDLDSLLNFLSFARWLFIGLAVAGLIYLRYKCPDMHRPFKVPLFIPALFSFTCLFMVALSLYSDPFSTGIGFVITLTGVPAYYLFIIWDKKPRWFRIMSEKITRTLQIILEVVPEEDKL
UniProt Q14457: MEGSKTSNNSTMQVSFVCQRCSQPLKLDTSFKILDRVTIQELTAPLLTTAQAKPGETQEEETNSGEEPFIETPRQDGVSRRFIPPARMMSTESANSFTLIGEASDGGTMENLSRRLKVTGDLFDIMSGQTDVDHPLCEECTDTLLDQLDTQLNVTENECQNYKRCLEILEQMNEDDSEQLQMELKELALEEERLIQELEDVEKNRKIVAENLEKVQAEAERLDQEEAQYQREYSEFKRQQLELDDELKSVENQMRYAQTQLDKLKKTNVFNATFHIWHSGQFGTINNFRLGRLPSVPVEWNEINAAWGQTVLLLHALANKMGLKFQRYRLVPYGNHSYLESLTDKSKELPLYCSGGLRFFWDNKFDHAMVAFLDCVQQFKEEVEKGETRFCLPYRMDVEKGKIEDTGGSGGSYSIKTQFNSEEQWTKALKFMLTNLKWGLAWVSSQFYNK

These are yes or no findings as the source states them, for the method shown. Binding seen in cells or lysates may run through a third protein. Some results given as binding are weak or reduced against the parent protein; the word gives no strength.

For test [1], the target named is solute carrier family 7 member 11 (human (endogenous in Huh7 and Hep3B)) (UniProt Q9UPY5). Put plainly: co-IP; cells with ectopic expression of MCL1 (pCMV6-MCL1-Myc-DDK) or without, 2.5 µM sorafenib for 16 h; cell line and precipitating antibody not named in the legend.
The target is the same in test [2]. Put plainly: co-IP; endogenous proteins; Huh7 lysate (IP buffer: 1 mM EDTA, 50 mM Tris-HCl pH 7.4, 120 mM NaCl, 1% NP-40, 0.25% sodium deoxycholate) precipitated with anti-MCL1 or anti-SLC7A11 and protein A agarose, 4 °C; Western blot; cells with or without 2.5 µM sorafenib for 16 h. For orientation: A western blot detects proteins with antibodies after separation by electrophoresis.

In test [3] the target is beclin 1 (human (endogenous in Huh7 and Hep3B)) (UniProt Q14457). Put plainly: co-IP; endogenous proteins; Hep3B lysate precipitated with anti-BECN1 and protein A agarose, 4 °C; Western blot; cells with or without 5 µM sorafenib for 16 h.

With beclin 1 (from UniProt Q14457 1-450), the binding entry in test [1] and in test [2] was “binds” each time.
As for “solute carrier family 3 member 2 (from UniProt P08195 1-529)”, the binding result in test [3] is recorded as “no binding”.
